Source: the supplement of paper PMC8728848
Some of the results follow.

Legend:
Assay in all cases: glycan array binding signal (z-score within array); higher = stronger binding
Conditions in all cases: glycan notation: IUPAC condensed, linker removed
[1] = biological target: Fuc(a1-3)[Gal3S(b1-4)]GlcNAc6S
Outline: (§1)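 The Consortium for Functional Glycomics database supplied 3228 glycan arrays, of which those lacking an available protein sequence were dropped. The binding signal, a within-array Z-score, was averaged across arrays of the same protein sequence and across linkers. Negative scores can be read as non-binding.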

[2] = biological target: Fuc(a1-3)[GalNAc(b1-4)]GlcNAc
Outline: as §1

[3] = biological target: Fuc(a1-3)[GalNAc(b1-4)]GlcNAc6S
Outline: as §1

Fuc(a1-4)GlcNAc = biological target: Fuc(a1-4)GlcNAc
Outline: as §1

Fuc(b1-3)GlcNAc = biological target: Fuc(b1-3)GlcNAc
Outline: as §1

Gal(a1-2)Gal = biological target: Gal(a1-2)Gal
Outline: as §1

Gal(a1-3)Gal = biological target: Gal(a1-3)Gal
Outline: as §1

Gal(a1-3)Gal(b1-3)GlcNAc = biological target: Gal(a1-3)Gal(b1-3)GlcNAc
Outline: as §1

[4] = biological target: Gal(a1-3)Gal(b1-3)GlcNAc(b1-2)Man
Outline: as §1

[5] = biological target: Gal(a1-3)Gal(b1-3)GlcNAc(b1-2)Man(a1-3)[Gal(a1-3)Gal(b1-3)GlcNAc(b1-2)Man(a1-6)]Man(b1-4)GlcNAc(b1-4)GlcNAc
Outline: as §1

[6] = biological target: Gal(a1-3)Gal(b1-3)GlcNAc(b1-3)GalNAc
Outline: as §1

[7] = biological target: Gal(a1-3)Gal(b1-3)GlcNAc(b1-6)GalNAc
Outline: as §1

[8] = biological target: Gal(a1-3)Gal(b1-3)[Fuc(a1-4)]GlcNAc(b1-2)Man(a1-3)[Gal(a1-3)Gal(b1-3)[Fuc(a1-4)]GlcNAc(b1-2)Man(a1-6)]Man(b1-4)GlcNAc(b1-4)GlcNAc
Outline: as §1

Gal(a1-3)Gal(b1-4)Glc = biological target: Gal(a1-3)Gal(b1-4)Glc
Outline: as §1

Gal(a1-3)Gal(b1-4)GlcNAc = biological target: Gal(a1-3)Gal(b1-4)GlcNAc
Outline: as §1

[9] = biological target: Gal(a1-3)Gal(b1-4)GlcNAc(b1-2)Man
Outline: as §1

[10] = biological target: Gal(a1-3)Gal(b1-4)GlcNAc(b1-2)Man(a1-3)[Gal(a1-3)Gal(b1-4)GlcNAc(b1-2)Man(a1-6)]Man(b1-4)GlcNAc(b1-4)GlcNAc
Outline: as §1

[11] = biological target: Gal(a1-3)Gal(b1-4)GlcNAc(b1-3)GalNAc
Outline: as §1

[12] = biological target: Gal(a1-3)Gal(b1-4)GlcNAc(b1-6)GalNAc
Outline: as §1

[13] = biological target: Gal(a1-3)Gal(b1-4)[Fuc(a1-3)]GlcNAc
Outline: as §1

[14] = biological target: Gal(a1-3)Gal(b1-4)[Fuc(a1-3)]GlcNAc(b1-2)Man(a1-3)[Gal(a1-3)Gal(b1-4)[Fuc(a1-3)]GlcNAc(b1-2)Man(a1-6)]Man(b1-4)GlcNAc(b1-4)GlcNAc
Outline: as §1

Gal(a1-3)GalNAc = biological target: Gal(a1-3)GalNAc
Outline: as §1

[15] = biological target: Gal(a1-3)[Gal(a1-4)]Gal(b1-4)GlcNAc
Outline: as §1

[16] = biological target: Gal(a1-4)Gal(b1-3)GlcNAc(b1-2)Man(a1-3)[Gal(a1-4)Gal(b1-3)GlcNAc(b1-2)Man(a1-6)]Man(b1-4)GlcNAc(b1-4)GlcNAc
Outline: as §1

Gal(a1-4)Gal(b1-4)Glc = biological target: Gal(a1-4)Gal(b1-4)Glc
Outline: as §1

Gal(a1-4)Gal(b1-4)GlcNAc = biological target: Gal(a1-4)Gal(b1-4)GlcNAc
Outline: as §1

[17] = biological target: Gal(a1-4)Gal(b1-4)GlcNAc(b1-2)Man(a1-3)[Gal(a1-4)Gal(b1-4)GlcNAc(b1-2)Man(a1-6)]Man(b1-4)GlcNAc(b1-4)GlcNAc
Outline: as §1

[18] = biological target: Gal(a1-4)Gal(b1-4)GlcNAc(b1-3)Gal(b1-4)Glc
Outline: as §1

Gal(a1-4)GlcNAc = biological target: Gal(a1-4)GlcNAc
Outline: as §1

Gal(a1-6)Glc = biological target: Gal(a1-6)Glc
Outline: as §1

Gal(b1-2)Gal = biological target: Gal(b1-2)Gal
Outline: as §1

Gal(b1-3)Gal = biological target: Gal(b1-3)Gal
Outline: as §1

Gal(b1-3)Gal(b1-4)GlcNAc = biological target: Gal(b1-3)Gal(b1-4)GlcNAc
Outline: as §1

Gal(b1-3)GalNAc = biological target: Gal(b1-3)GalNAc
Outline: as §1

[19] = biological target: Gal(b1-3)GalNAc(a1-3)[Fuc(a1-2)]Gal(b1-4)Glc
Outline: as §1

[20] = biological target: Gal(b1-3)GalNAc(a1-3)[Fuc(a1-2)]Gal(b1-4)GlcNAc
Outline: as §1

Gal(b1-3)GalNAc(b1-3)Gal = biological target: Gal(b1-3)GalNAc(b1-3)Gal
Outline: as §1

[21] = biological target: Gal(b1-3)GalNAc(b1-3)Gal(a1-4)Gal(b1-4)Glc
Outline: as §1

[22] = biological target: Gal(b1-3)GalNAc(b1-4)Gal(b1-4)Glc
Outline: as §1

[23] = biological target: Gal(b1-3)GalNAc(b1-4)[Neu5Ac(a2-3)]Gal(b1-4)Glc
Outline: as §1

Gal(b1-3)GlcNAc = biological target: Gal(b1-3)GlcNAc
Outline: as §1

[24] = biological target: Gal(b1-3)GlcNAc(a1-3)Gal(b1-4)GlcNAc
Outline: as §1

[25] = biological target: Gal(b1-3)GlcNAc(a1-6)Gal(b1-4)GlcNAc
Outline: as §1

Gal(b1-3)GlcNAc(b1-2)Man = biological target: Gal(b1-3)GlcNAc(b1-2)Man
Outline: as §1

[26] = biological target: Gal(b1-3)GlcNAc(b1-2)Man(a1-3)[Gal(b1-3)GlcNAc(b1-2)Man(a1-6)]Man(b1-4)GlcNAc(b1-4)GlcNAc
Outline: as §1

B1: PX9961KLbvu-535-38-535 (Bacteroides vulgatus) (protein)
chain: DKAYTDAESYTKGLHKIYSVWALSGQDGSSSSDISGLDAGNTALLRCWWTLQEQPTDEMKNAWNDAWCTEVNYMTWTTNKVEPIEGVYQRCMYIVALVNEFLKNIPNAPESIDKESYIAQARFNRAFAYYVLMDMFALPPFITEKNYSIEPAPLSREDLFNWIEAELNEIKPNLPSPRSEYGVADQAVASALLARMYLNAEIYTGKARYTECINACNEVIKAGYQLADNYADLFKADNGENPDTKKEIIYPIIFDGDKTQSWGMAAIIIGARGAEDKDVLLAHSGVDQGWAGFRATSNLVHLFDFQNDEEPKASEIQDKRGIFYDKGRSIDITSSVSGTFETEGWSVFKFSNLNSNGQPGKNTLWVDTDFPMFRLGDIYLMYAEAVARGGEGSKASAVEYINALRKRAYGDDKHNISENWLEENNFRNLLDERGRELYWEGIRRTDLVRFDLLTSGSYTWDFKGGINTGVGVNKRYNVYPIPVTDLTVNGNLQQNEGY
- glycan array binding signal (z-score) [1]: -0.054
- glycan array binding signal (z-score) [2]: 1.1
- glycan array binding signal (z-score) [3]: 0.664
- glycan array binding signal (z-score) (Fuc(a1-4)GlcNAc): -0.779
- glycan array binding signal (z-score) (Fuc(b1-3)GlcNAc): -0.297
- glycan array binding signal (z-score) (Gal(a1-2)Gal): -0.938
- glycan array binding signal (z-score) (Gal(a1-3)Gal): 0.561
- glycan array binding signal (z-score) (Gal(a1-3)Gal(b1-3)GlcNAc): -0.994
- glycan array binding signal (z-score) [4]: 0.168
- glycan array binding signal (z-score) [5]: -0.04
- glycan array binding signal (z-score) [6]: -0.627
- glycan array binding signal (z-score) [7]: -0.115
- glycan array binding signal (z-score) [8]: 0.002
- glycan array binding signal (z-score) (Gal(a1-3)Gal(b1-4)Glc): -0.366
- glycan array binding signal (z-score) (Gal(a1-3)Gal(b1-4)GlcNAc): 0.253
- glycan array binding signal (z-score) [9]: -0.783
- glycan array binding signal (z-score) [10]: -0.391
- glycan array binding signal (z-score) [11]: -0.043
- glycan array binding signal (z-score) [12]: -0.32
- glycan array binding signal (z-score) [13]: -0.356
- glycan array binding signal (z-score) [14]: 0.534
- glycan array binding signal (z-score) (Gal(a1-3)GalNAc): 0.046
- glycan array binding signal (z-score) [15]: 2.6
- glycan array binding signal (z-score) [16]: -0.732
- glycan array binding signal (z-score) (Gal(a1-4)Gal(b1-4)Glc): -0.25
- glycan array binding signal (z-score) (Gal(a1-4)Gal(b1-4)GlcNAc): 0.822
- glycan array binding signal (z-score) [17]: 2.35
- glycan array binding signal (z-score) [18]: -1.13
- glycan array binding signal (z-score) (Gal(a1-4)GlcNAc): -0.431
- glycan array binding signal (z-score) (Gal(a1-6)Glc): -0.209
- glycan array binding signal (z-score) (Gal(b1-2)Gal): -0.992
- glycan array binding signal (z-score) (Gal(b1-3)Gal): -0.645
- glycan array binding signal (z-score) (Gal(b1-3)Gal(b1-4)GlcNAc): -0.566
- glycan array binding signal (z-score) (Gal(b1-3)GalNAc): 0.204
- glycan array binding signal (z-score) [19]: -0.523
- glycan array binding signal (z-score) [20]: -0.06
- glycan array binding signal (z-score) (Gal(b1-3)GalNAc(b1-3)Gal): -0.509
- glycan array binding signal (z-score) [21]: -0.296
- glycan array binding signal (z-score) [22]: -0.601
- glycan array binding signal (z-score) [23]: 0.015
- glycan array binding signal (z-score) (Gal(b1-3)GlcNAc): -0.238
- glycan array binding signal (z-score) [24]: -0.489
- glycan array binding signal (z-score) [25]: 0.231
- glycan array binding signal (z-score) (Gal(b1-3)GlcNAc(b1-2)Man): -0.003
- glycan array binding signal (z-score) [26]: 0.979
